The results in this text go back to PMC2923182.

By UniProt entry, the sequences of proteins in these tests, tags left out. Residues count along the entry.
UniProt P13500, residues 24-99: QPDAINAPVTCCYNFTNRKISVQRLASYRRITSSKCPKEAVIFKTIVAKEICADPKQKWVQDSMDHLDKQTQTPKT
UniProt P21333: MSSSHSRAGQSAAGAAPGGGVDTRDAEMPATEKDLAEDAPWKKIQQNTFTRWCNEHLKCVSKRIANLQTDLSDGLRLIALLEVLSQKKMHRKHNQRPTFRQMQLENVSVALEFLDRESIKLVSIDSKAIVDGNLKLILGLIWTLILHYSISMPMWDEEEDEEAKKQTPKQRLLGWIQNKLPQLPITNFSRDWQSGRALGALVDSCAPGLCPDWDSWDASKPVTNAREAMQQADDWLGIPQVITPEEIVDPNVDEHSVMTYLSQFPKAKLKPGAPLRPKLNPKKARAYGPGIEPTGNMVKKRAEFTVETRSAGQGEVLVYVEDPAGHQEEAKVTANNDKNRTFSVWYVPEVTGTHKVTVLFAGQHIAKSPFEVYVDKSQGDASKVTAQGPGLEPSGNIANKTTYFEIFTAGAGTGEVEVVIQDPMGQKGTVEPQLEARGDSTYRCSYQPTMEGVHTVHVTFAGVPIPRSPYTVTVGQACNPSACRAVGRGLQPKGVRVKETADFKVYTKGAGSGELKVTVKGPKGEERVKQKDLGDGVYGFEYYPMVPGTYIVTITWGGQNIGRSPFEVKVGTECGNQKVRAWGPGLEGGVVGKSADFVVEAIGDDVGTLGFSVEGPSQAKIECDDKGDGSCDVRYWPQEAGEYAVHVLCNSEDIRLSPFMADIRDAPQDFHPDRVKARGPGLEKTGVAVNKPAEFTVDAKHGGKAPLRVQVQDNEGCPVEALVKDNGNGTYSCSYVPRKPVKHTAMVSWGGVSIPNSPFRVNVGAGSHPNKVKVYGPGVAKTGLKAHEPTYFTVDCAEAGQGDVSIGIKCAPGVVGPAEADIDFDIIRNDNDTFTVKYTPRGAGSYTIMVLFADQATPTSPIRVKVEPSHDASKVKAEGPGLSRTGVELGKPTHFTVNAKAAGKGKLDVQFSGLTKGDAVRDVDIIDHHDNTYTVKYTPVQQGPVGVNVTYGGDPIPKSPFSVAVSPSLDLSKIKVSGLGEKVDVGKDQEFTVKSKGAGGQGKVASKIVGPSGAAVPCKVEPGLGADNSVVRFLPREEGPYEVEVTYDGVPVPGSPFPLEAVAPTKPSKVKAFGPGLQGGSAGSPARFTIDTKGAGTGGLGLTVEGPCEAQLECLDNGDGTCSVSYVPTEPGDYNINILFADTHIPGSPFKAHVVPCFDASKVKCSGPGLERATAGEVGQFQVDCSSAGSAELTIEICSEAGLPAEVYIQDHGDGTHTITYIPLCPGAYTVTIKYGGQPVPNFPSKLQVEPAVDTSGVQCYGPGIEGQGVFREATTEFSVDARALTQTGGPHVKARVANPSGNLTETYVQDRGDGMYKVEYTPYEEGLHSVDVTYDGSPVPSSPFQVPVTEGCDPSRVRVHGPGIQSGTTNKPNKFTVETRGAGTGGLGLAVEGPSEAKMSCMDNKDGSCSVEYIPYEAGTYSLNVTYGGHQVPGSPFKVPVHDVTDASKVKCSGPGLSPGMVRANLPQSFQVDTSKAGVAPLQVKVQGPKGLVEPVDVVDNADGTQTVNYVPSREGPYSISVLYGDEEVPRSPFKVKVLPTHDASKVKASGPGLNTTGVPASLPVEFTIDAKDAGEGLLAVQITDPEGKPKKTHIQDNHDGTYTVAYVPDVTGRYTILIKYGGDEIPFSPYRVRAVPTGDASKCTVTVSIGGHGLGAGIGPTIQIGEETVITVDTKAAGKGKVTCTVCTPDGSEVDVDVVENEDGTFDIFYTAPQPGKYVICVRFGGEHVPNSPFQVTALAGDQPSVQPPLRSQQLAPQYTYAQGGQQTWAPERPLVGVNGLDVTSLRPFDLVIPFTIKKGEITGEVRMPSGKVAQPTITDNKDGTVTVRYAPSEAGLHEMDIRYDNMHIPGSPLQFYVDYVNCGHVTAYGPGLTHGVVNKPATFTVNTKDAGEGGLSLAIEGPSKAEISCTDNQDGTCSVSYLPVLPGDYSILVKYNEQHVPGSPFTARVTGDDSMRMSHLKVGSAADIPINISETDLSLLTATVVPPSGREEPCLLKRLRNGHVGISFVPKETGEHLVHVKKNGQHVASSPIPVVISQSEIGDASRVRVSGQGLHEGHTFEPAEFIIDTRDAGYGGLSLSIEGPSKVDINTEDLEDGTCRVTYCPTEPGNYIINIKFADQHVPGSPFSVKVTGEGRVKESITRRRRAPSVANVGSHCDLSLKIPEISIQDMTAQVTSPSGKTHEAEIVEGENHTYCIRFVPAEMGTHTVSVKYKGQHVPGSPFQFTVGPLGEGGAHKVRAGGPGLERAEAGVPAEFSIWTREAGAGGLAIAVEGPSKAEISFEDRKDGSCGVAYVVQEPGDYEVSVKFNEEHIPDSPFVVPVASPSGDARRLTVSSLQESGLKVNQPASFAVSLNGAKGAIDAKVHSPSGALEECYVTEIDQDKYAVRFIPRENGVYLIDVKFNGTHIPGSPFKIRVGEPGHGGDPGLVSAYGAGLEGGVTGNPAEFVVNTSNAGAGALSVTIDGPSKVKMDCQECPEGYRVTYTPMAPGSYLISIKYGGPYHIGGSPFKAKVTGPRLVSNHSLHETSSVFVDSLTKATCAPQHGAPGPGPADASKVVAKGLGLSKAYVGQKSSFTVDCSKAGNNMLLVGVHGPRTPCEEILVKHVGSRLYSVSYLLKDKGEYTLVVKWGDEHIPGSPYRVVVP

No constants are given. Whether binding was seen depends on the method and setting. For part of these data: Binding seen in cells or lysates may run through a third protein. Some binding calls cover weakened binding; strength is not graded here.

The target of assay [1] is FLAG-CCR2B on A7 cells (FLNa present) (UniProt P41597). Description: radioligand binding; whole A7 cells (FLNa present) transfected with CCR2B; 50 000 cpm 125I-Human MCP-1 alone or with unlabelled peptide (10^-11 M and 10^-5 M), 4°C for 5 h; only the binder purified.
Assay [2] deals with FLAG-CCR2B on M2 cells (FLNa-deficient) (UniProt P41597). Description: radioligand binding; whole M2 cells (FLNa-deficient) transfected with CCR2B; 50 000 cpm 125I-Human MCP-1 alone or with unlabelled peptide (10^-11 M and 10^-5 M), 4°C for 5 h; only the binder purified.
Assay [3] deals with FLAG-CCR2B, full length, in HEK293 cells (pcDNA3-FLAG-CCR2B) (UniProt P41597). Description: co-IP; HEK293 transfected with pcDNA3-FLAG-CCR2B; 1% Brij 96 V lysis buffer; M2 anti-FLAG on Protein G-Sepharose, 4°C overnight; blot with anti-filamin 1.

As to “125I-Human MCP-1 (CCL2) (from UniProt P13500 24-99) (ligand)”, the binding result in assay [1] and in assay [2] was “binds” in each case.
“Filamin A, endogenous in HEK293 cells (from UniProt P21333 1-2647)”: the binding entry in assay [3] is listed as “binds”.
